Results as given in paper PMC11924951.
No constants are given. Whether binding was seen depends on the method and setting. Some entries that bind do so weakly or less than the wild type. For some of these results: Tags and fused reporters may be left off the sequences shown.

By UniProt entry, the sequences of proteins in these tests, tags left out. Residues count along the entry.
UniProt P17181, residues 28-436: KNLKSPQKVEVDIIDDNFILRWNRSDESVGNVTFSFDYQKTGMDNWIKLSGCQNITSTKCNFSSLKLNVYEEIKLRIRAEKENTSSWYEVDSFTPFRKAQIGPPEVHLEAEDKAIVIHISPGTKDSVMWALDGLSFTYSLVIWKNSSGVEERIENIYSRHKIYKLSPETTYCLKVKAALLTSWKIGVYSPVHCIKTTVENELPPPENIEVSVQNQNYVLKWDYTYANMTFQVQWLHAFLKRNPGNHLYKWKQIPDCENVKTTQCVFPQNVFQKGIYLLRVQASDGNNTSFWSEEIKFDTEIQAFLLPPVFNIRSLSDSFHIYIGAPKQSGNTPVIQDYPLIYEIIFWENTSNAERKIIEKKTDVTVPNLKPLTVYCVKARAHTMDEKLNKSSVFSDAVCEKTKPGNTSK
UniProt P05000, residues 22-195: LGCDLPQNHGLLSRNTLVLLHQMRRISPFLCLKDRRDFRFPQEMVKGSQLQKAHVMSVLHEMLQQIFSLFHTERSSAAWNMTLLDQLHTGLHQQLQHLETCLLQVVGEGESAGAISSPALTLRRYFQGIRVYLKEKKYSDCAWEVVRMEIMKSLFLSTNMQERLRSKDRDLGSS

How the values were obtained:
[1] = molecular target: His-tagged IFNAR1 (human) (UniProt P17181); test: BLI; His-tagged IFNAR1 (25 nM) or IFNAR2 (100 nM) loaded on Ni-NTA biosensors for 600 s; IFN-I in solution, association 60-120 s, dissociation 120 s; 0.02% Tween-20, 0.1% BSA in 1x PBS, pH 7.4; Octet R2; both purified
[2] = molecular target: T1, His-tagged IFNAR2 (human) (UniProt P48551); test: as above
T1 sequence: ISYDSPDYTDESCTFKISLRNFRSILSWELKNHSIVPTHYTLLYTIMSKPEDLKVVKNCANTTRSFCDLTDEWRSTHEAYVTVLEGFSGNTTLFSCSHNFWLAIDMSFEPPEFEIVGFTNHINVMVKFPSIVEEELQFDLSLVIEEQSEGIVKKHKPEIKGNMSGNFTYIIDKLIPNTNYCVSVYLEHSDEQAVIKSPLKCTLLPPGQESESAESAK

[3] = molecular target: His-tagged IFNAR1 (human) (UniProt P17181); test: BLI; blocking format: IFN-I preincubated 1 h at room temperature with rontalizumab (1:50), sifalimumab (1:50) or plasma (1:10) in assay buffer with 50% goat serum; His-tagged IFNAR1 or IFNAR2 loaded on Ni-NTA biosensors, blocked in 100% goat serum; association 120 s; both purified
[4] = molecular target: T1, His-tagged IFNAR2 (human); test: as above

- binding [1]: binds
- binding [2]: binds
- binding [3]: binds
- binding [4]: binds
Substance: IFNω (from UniProt P05000 22-195) (ligand)
